Results are given in words; binding and its absence hold for the method and conditions named. Some results given as binding are weak or reduced against the parent protein; the word gives no strength. Tags and fused reporters may be left off the sequences shown.
What was measured:
[1] = molecular target: T1, HisPex1p(D797N) released from its GST fusion (S. cerevisiae) (UniProt P24004); test: SEC; complexes of wild-type or Walker B mutant Pex1p with Pex6p purified by tandem affinity chromatography and size exclusion chromatography; nucleotide not stated for this experiment; both purified
T1 sequence: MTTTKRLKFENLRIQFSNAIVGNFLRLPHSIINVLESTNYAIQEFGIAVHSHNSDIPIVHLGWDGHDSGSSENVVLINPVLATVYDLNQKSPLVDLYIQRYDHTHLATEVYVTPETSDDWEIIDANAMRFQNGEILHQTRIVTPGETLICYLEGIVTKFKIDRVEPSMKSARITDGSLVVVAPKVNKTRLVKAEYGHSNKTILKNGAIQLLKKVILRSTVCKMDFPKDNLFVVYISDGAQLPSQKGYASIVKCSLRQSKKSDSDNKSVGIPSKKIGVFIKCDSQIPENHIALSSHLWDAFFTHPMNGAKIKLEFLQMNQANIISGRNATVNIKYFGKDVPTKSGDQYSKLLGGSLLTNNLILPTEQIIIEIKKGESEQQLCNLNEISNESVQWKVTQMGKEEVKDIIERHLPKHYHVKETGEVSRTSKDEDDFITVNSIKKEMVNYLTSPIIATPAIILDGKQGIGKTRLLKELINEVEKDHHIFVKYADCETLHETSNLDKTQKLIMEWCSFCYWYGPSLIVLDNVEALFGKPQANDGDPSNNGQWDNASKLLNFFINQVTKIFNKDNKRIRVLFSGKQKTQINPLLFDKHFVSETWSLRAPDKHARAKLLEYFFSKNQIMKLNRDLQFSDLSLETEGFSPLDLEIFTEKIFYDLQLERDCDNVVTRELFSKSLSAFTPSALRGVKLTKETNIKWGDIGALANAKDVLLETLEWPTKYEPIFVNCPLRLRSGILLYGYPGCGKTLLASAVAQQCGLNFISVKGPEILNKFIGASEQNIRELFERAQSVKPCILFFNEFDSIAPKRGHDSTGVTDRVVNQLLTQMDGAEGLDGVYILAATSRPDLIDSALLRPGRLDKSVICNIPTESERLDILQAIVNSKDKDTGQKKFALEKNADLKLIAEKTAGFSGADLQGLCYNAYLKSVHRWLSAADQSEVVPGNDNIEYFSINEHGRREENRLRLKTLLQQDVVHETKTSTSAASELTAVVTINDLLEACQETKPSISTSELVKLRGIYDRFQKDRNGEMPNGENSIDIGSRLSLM

[2] = molecular target: T2, HisPex1p released from HisPex1pGST by thrombin (S. cerevisiae) (UniProt P24004); test: as above
T2 sequence: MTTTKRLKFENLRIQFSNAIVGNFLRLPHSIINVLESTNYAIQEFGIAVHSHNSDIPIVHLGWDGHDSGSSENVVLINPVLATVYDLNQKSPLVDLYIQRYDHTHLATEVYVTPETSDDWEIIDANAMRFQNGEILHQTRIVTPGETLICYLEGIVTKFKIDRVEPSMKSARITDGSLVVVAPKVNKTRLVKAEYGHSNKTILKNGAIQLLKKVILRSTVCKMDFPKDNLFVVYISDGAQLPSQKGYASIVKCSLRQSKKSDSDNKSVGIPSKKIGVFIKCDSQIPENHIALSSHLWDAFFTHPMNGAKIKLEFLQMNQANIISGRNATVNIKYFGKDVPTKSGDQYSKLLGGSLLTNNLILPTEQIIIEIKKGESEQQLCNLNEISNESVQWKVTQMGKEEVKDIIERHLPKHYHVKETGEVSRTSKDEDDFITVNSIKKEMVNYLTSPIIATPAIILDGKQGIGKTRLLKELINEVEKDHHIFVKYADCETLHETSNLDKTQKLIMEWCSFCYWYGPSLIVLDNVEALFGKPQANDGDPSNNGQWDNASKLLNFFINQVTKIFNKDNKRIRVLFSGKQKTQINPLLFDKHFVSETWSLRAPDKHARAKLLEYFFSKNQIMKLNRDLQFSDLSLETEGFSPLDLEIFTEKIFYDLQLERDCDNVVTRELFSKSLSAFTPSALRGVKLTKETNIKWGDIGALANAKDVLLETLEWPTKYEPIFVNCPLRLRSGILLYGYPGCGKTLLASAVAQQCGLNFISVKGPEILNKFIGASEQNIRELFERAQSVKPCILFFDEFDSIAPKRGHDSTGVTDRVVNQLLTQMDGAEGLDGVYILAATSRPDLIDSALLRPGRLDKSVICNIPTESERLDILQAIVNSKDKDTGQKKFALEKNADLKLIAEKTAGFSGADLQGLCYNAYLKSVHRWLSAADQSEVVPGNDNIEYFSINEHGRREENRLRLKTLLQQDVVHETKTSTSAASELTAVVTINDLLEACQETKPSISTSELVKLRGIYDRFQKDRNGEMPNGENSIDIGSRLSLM

binding [1]: binds
binding [2]: binds
B1: HisPex6p (natural protein, S. cerevisiae, UniProt P33760 1-1030, looked up)
chain: MKASLTFSLSGIYAPCSISRDIYLEYGDKKAECLYGTIRLPQYGPGCTPGKIVHCVLDDSLPFCSIVVPSKLFGFMPTQPTMDFCYFEPILDNVVPVLDSVTFLINEQLYSKLMDLPQEMQQIQFLHYKYNINSMETVVHSRDILTSGLCQILNCSPFPQGLVDFTETQLILVNDTEQKLSALKYANEDEEYALPKIGTNSALSIDLESLPCTISRDLLRPAPHINDDNSIYAFTDAETLLRLDVTSGSFITVSNMGCVRLVKLFVLLLPNGFKKRTIYAPPKIIASFPDCSVVTISKSNIGHTDIPIANQVFISRVGGWLQSQKCFQNIILTTLKKFFSESKRILCQNDLIPIAFDSSMADLNIAEENDESDDEDELGQYYKNDSLVWFFVTSAELDCFSKDNSHFIIDPNRTKLITTNITNRRPLPLSRSNLQRYYGFAETFYYDLHIFPYVRQLVNILETSFNCSQRGITLNASVLLHSTTNNVGKATMVRFASKYLGIHLLEIDCLSLTSNSRQLDSTSKIIGYIRAKCENVLPYASPAVIFLAHLDSILLDVNANQDPEAIKLQKSINFEMSKLLDDFTFKFPGTTFVGSVNNIDNVPSSFRSHMRFEILVPVPSEAQRLRIFQWYLSSHELNRDVQQKVPVSYMDNISFSSLSSYSAGLTPLDIKSIVETARMTATARFYQESKKCGWLPQSILITQEDLSKATSKARNEFSVSIGAPQIPNVTWDDIGGIDFVKGEILDTIDMPLKHPELFTSGMKKRSGILFYGPPGTGKTLMAKAIATNFSLNFFSVKGPELLNMYIGESEANVRRVFQKAREAKPCVIFFDEIDSVAPKRGNQGDSGGVMDRIVSQLLAELDGMSTDADGVFVIGATNRPDLLDEALLRPGRFDKLLYLGIPDTDTKQLNILEALTRKFVLDNDVKLIELAKLCPFNYTGADFYALCSDAMLNAMSRIARMVEKKVSQHNELTGENISTRRWFDKIATKEDTKVVVKMEDFLKAQEQLTPSVSRAELNHYEAVRANFEGA
notes: Pex6p, type II AAA-ATPase peroxin of yeast; also called single Pex6p; isolated Pex6p; source: E. coli Tuner (DE3), purified (NiNTA-agarose; with HisPex1pGST also GSH-agarose and size exclusion); not shown: His6, N-terminal, kept

— publication PMC4740771, “Nucleotide-dependent assembly of the peroxisomal receptor export complex” (Scientific Reports, 2016)
